The list is a part of this screen's results and no random one: it is rich in T/C values a quarter to a half above the control, in often repeated tests (any T/C) and in doses without a T/C. Further doses and runs are listed elsewhere. T/C: endpoint of the treated group in % of that of the vehicle group. Some entries give survivors of the animals treated and no T/C: the source holds a T/C of zero for them, seemingly a mark for toxic or unscored doses. Some doses without a T/C left all or most animals alive at the check, yet need not have been tolerated: survival well below the control is almost never listed, so the zero probably covers shortened survival too. Counts of survivors are from the toxicity check (mostly the fifth day) where no day follows; animals may have died later. Schedule codes are those of the source, read here as Q, the interval in days (D) or hours (H), X, the number of doses. Some entries hold several experiments; their values stand side by side, smallest first. Where survival is the endpoint, the PubChem record calls one and a half times the control and up active, and a quarter to a half above the control has no call in these data; cut-offs in other NCI protocols can differ. Brackets with × stand for listed records that agree. Some T/C values are followed by the survivors on the day toxicity was checked, most often the fifth; where none is given, no animal had died by that day.
System: B6C3F1 mice, Lewis lung carcinoma iv, survival T/C
Assay: NCI In Vivo Anticancer Drug Screen. Data for tumor model Lewis Lung Carcinoma (intravenous) in B6C3F1 mice
Conditions: T/C endpoint: median survival time, schedule: Q01DX009 (ip), higher T/C = longer survival
How it was run: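 Mice carrying transplanted tumors received test compound; survival in the treated group was divided by that of the vehicle-treated control group to give the T/C value.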

[1] = dose: 25.0 mg/kg/injection, vehicle: saline with Tween-80
[2] = dose: 100.0 mg/kg/injection, vehicle: water
[3] = dose: 400.0 mg/kg/injection, vehicle: saline
[4] = dose: 800.0 mg/kg/injection, vehicle: saline
[5] = dose: 12.5 mg/kg/injection, vehicle: saline
[6] = dose: 25.0 mg/kg/injection, vehicle: saline
[7] = dose: 50.0 mg/kg/injection, vehicle: saline
[8] = dose: 20.0 mg/kg/injection, vehicle: saline with Tween-80
[9] = dose: 50.0 mg/kg/injection, vehicle: water
[10] = dose: 4.0 mg/kg/injection, vehicle: saline
[11] = dose: 400.0 mg/kg/injection, vehicle: Klucel (hydroxypropylcellulose) (HPC)

Structure (SMILES): CCCCCCCCCCCCN1C(C)=CS/C1=C\C=C\c1scc(C)[n+]1CCCCCCCCCCCC
- survivor count (dose: 0.78 mg/kg/injection, vehicle: saline with Tween-80): 9 of 10
- survivor count (dose: 3.12 mg/kg/injection, vehicle: saline with Tween-80): 10 of 10
- survivor count (dose: 6.25 mg/kg/injection, vehicle: saline with Tween-80): 10 of 10
- survivor count (dose: 12.0 mg/kg/injection, vehicle: saline with Tween-80): 0 of 10
- survivor count [1]: 0 of 10

Structure (SMILES): COC1CC(C)C(OC)c2cc(O)cc(c2O)NC(=O)/C(C)=C/C=C\C(C)C(OC(N)=O)/C(C)=C\C(C)C1OC (centres undefined)
- survivor count (dose: 20.0 mg/kg/injection, vehicle: saline + alcohol): 7 of 10

Structure (SMILES): [Cl][Pt][Cl].[NH-]C(CO)C(=O)O (centres undefined)
- survivor count [2]: 4 of 10

Structure (SMILES): FC(F)(F)c1nc2nc(Cl)c(Cl)nc2[nH]1
- survivor count (dose: 100.0 mg/kg/injection, vehicle: saline with Tween-80): 6 of 10

Structure (SMILES): N=c1ccn2c(n1)OC1C(O)C(CO)OC12 (centres undefined)
- T/C (dose: 200.0 mg/kg/injection, vehicle: saline): 136 % of control
- T/C [3]: 133 % of control
- T/C [4]: 136 % of control

Structure (SMILES): COc1cccc2c1C(=O)c1c(O)c3c(c(O)c1C2=O)C[C@@](O)(/C(C)=N\NC(=O)CO)C[C@@H]3OC1CC(N)C(O)C(C)O1 (some centres undefined)
- survivor count [5]: 10 of 10
- survivor count [6]: 10 of 10
- survivor count [7]: 10 of 10

Structure (SMILES): CCOC(=O)Nc1cc2c(c(N)n1)N=C(c1ccccc1)CN2
- survivor count (dose: 10.0 mg/kg/injection, vehicle: saline with Tween-80): 1 of 10
- survivor count [8]: 0 of 10

Structure (SMILES): COc1cccc2c1C(=O)c1c(O)c3c(c(O)c1C2=O)C[C@@](O)(C(O)CO)C[C@@H]3OC1CC(N(Cc2ccccc2)Cc2ccccc2)C(O)C(C)O1 (some centres undefined)
- T/C (dose: 25.0 mg/kg/injection, vehicle: water): 126 % of control
- T/C [9]: 147 % of control
- survivor count [2]: 10 of 10
- survivor count (dose: 200.0 mg/kg/injection, vehicle: water): 10 of 10
- survivor count (dose: 400.0 mg/kg/injection, vehicle: water): 10 of 10

Structure (SMILES): CCc1nc(N)nc(N)c1-c1ccc(Cl)c([N+](=O)[O-])c1
- survivor count [1]: 10 of 10
- survivor count (dose: 50.0 mg/kg/injection, vehicle: saline with Tween-80): 9 of 10

Structure (SMILES): CCCCNCCCNCCCNC(=O)c1csc(-c2csc(CCNC(=O)C(NC(=O)C(C)C(O)C(C)NC(=O)C(NC(=O)c3nc(C(CC(N)=O)NCC(N)C(N)=O)nc(N)c3C)C(OC3OC(CO)C(O)C(O)C3OC3OC(CO)C(O)C(OC(N)=O)C3O)c3cnc[nH]3)C(C)O)n2)n1 (centres undefined)
- T/C [10]: 133 % of control
- survivor count (dose: 32.0 mg/kg/injection, vehicle: saline): 10 of 10
- survivor count (dose: 64.0 mg/kg/injection, vehicle: saline): 10 of 10

Structure (SMILES): CCOC(=O)c1ccc(NN=NCCF)cc1
- T/C (dose: 25.0 mg/kg/injection, vehicle: distilled water + Tween-80): 137 % of control
- T/C (dose: 50.0 mg/kg/injection, vehicle: distilled water + Tween-80): 137 % of control (2×)
- T/C (dose: 100.0 mg/kg/injection, vehicle: distilled water + Tween-80): 125 % of control
- T/C (dose: 200.0 mg/kg/injection, vehicle: distilled water + Tween-80): 137 % of control
- survivor count (dose: 200.0 mg/kg/injection, vehicle: distilled water + alcohol): 10 of 10
- survivor count (dose: 400.0 mg/kg/injection, vehicle: distilled water + Tween-80): 10 of 10
- survivor count (dose: 400.0 mg/kg/injection, vehicle: distilled water + alcohol): 6 of 10

Structure (SMILES): COc1ccc2[nH]c3c(c2c1)CCNC3CC(C)CCC=C(C)C (centres undefined)
- survivor count (dose: 200.0 mg/kg/injection, vehicle: Klucel (hydroxypropylcellulose) (HPC)): 5 of 10

Structure (SMILES): Oc1c(Cl)cc(Cl)cc1C=NCCSc1ccc(Cl)cc1
- survivor count [11]: 6 of 10

Structure (SMILES): COc1cccc2c1C(=O)c1c(O)c3c(c(O)c1C2=O)C[C@@](O)(C(C)=O)C[C@@H]3OC1CC(N)C(O)C(C)O1 (some centres undefined)
- T/C (dose: 0.13 mg/kg/injection, vehicle: saline): 132 % of control
- survivor count (dose: 2.0 mg/kg/injection, vehicle: saline): 9 of 9
- survivor count [10]: 10 of 10
- survivor count (dose: 8.0 mg/kg/injection, vehicle: saline): 8 of 10

Structure (SMILES): Cc1cc(NCCCN(C)C)c2ccc3c(ccc4c(NCCCN(C)C)cc(C)nc43)c2n1
- survivor count (dose: 6.25 mg/kg/injection, vehicle: saline): 7 of 10
- survivor count [5]: 0 of 10
- survivor count [6]: 0 of 10
- survivor count [7]: 0 of 10
- survivor count (dose: 100.0 mg/kg/injection, vehicle: saline): 0 of 10

Structure (SMILES): CC(=O)Oc1c(C)[nH]ccc1=O
- T/C [4]: 133 % of control [9 of 10 alive]

Structure (SMILES): C[C@]12C=CC(=O)C=C1CC[C@@H]1[C@@H]2[C@@H](O)C[C@@]2(C)[C@H]1CC[C@]2(O)C(=O)CO
- survivor count (dose: 800.0 mg/kg/injection, vehicle: Klucel (hydroxypropylcellulose) (HPC)): 9 of 10

Structure (SMILES): N=c1ccc2nc3ccc(N)cc3sc-2c1
- survivor count [9]: 4 of 10
- survivor count [2]: 0 of 10

Structure (SMILES): Cc1ccc(N)c(N)c1
- survivor count (dose: 400.0 mg/kg/injection, vehicle: saline with Tween-80): 6 of 10
- survivor count (dose: 800.0 mg/kg/injection, vehicle: saline with Tween-80): 0 of 10

Structure (SMILES): [Cl][Pt+2][Cl].[NH-]C1CCC1.[NH2-]
- T/C (dose: 1.5 mg/kg/injection, vehicle: saline): 126 % of control
- T/C (dose: 12.0 mg/kg/injection, vehicle: saline): 128 % of control
- survivor count (dose: 24.0 mg/kg/injection, vehicle: saline): 8 of 9

Structure (SMILES): O=CC(S)CO (centres undefined)
- survivor count [3]: 4 of 10 and 8 of 10

Structure (SMILES): CN(C)CCN1C(=O)c2cccc3cc(N)cc(c23)C1=O
- T/C (dose: 16.0 mg/kg/injection, vehicle: saline with Tween-80): 138 % of control
- survivor count (dose: 32.0 mg/kg/injection, vehicle: saline with Tween-80): 9 of 10

Structure (SMILES): CC(=O)O[C@@H]1CO[C@H]2O[C@H]3[C@@H](C(C=O)=C[C@H](O)[C@@H]4C5=C(C(C)C)CC[C@]5(C)CC[C@@]34C)[C@@]2(O)C1=O
- survivor count (dose: 6.0 mg/kg/injection, vehicle: Klucel (hydroxypropylcellulose) (HPC)): 7 of 10
- survivor count (dose: 12.0 mg/kg/injection, vehicle: Klucel (hydroxypropylcellulose) (HPC)): 0 of 10
- survivor count (dose: 24.0 mg/kg/injection, vehicle: Klucel (hydroxypropylcellulose) (HPC)): 0 of 10

Structure (SMILES): Nc1ccc(Cn2ccc3c4c(N)nc(N)nc4ccc32)cc1
- survivor count [8]: 10 of 10
- survivor count (dose: 40.0 mg/kg/injection, vehicle: saline with Tween-80): 0 of 10

Structure (SMILES): CCCCc1ccc2nc(NC(=O)OC)[nH]c2c1
- survivor count (dose: 200.0 mg/kg/injection, vehicle: saline with Tween-80): 2 of 10

Structure (SMILES): O=C1N[C@H]2[C@H](CS[C@H]2CCCCC(=O)N(CCP(c2ccccc2)c2ccccc2)CCP(c2ccccc2)c2ccccc2)N1
- survivor count (dose: 100.0 mg/kg/injection, vehicle: Klucel (hydroxypropylcellulose) (HPC)): 10 of 10
- survivor count [11]: 10 of 10
